Reference: publication PMC12811252 (The EMBO Journal, 2025)

Columns and labels:
OT-I TCR = test: SPR steady-state binding of soluble OT-I TCR to immobilised pMHC (H-2Kb) at 37 °C: apparent and active KD; parameters: species or system mouse; conditions: log of the average revised KD
[1] = test system: pMHC-specific B2M or Y3 antibody; test: Fraction of active pMHC: binding of conformationally sensitive antibody (B2M or Y3) and ratio of TCR Bmax to pMHC immobilisation level (SPR); conditions: source data of Fig. 2, BmaxAB-ImmL_ratio_average.csv

| Molecule | log(Revised 3D KD) (OT-I TCR) | BmaxAB/ImmL ratio, average [1] |
| --- | --- | --- |
| EIINFEKL [Peptide E1] | 3.561 | – |
| RGYNYEKL [V-OVA, its pMHC is not correctly folded] | – | 0.04539 |
| SIIRFEKL [Peptide R4] | 3.705 | – |
| CD86: immobilised reference protein in flow cell 1 (protein) APLKIQAYFNETADLPCQFANSQNQSLSELVVFWQDQENLVLNEVYLGKEKFDSVHSKYMGRTSFDSDSWTLRLHNLQIKDKGLYQCIIHHKKPTGMIRIHQMNSELSVLANFSQPEIVPISNITENVYINLTCSSIHGYPEPKKMSVLLRTKNSTIEYDGVMQKSQDNVTELYDVSISLSVSFPDVTSNMTIFCILETDKTRLLSSPFSIELEDPQPPPDHIPWITAVLPTVIICVMVFCLILWKWKKKKRPRNSYKCGTNTMEREESEQTKKREKIHIPERSDEAQRVFKSSKTSSCDKSDTCF | – | 0.0577 |
